From ChEMBL document CHEMBL3988442, “University of Dundee, Small-Polar-MMV Screening Library” (2021).

Chains of the proteins cited; added tags and fusions are not shown.
UniProt E9BF75, entry or part of it: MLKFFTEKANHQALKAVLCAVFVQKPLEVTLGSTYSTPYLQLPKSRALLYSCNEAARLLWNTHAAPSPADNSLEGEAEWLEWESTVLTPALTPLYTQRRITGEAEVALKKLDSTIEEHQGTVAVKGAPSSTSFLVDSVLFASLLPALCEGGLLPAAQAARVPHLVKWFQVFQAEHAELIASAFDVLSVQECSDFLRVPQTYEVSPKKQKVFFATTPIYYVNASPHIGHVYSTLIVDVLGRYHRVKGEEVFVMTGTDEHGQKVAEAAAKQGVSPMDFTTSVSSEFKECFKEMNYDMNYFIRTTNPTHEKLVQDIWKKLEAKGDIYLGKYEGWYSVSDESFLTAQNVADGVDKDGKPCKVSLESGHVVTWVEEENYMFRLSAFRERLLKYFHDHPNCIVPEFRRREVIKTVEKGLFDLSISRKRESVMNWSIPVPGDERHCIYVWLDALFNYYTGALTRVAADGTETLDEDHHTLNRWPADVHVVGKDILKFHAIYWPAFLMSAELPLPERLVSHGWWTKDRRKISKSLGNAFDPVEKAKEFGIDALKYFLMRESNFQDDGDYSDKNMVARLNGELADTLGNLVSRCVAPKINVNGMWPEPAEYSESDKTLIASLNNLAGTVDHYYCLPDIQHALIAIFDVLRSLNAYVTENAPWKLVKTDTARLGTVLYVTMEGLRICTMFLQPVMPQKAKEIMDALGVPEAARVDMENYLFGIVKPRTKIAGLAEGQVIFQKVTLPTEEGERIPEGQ

LdMetRS: 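Primary screen of methionyl-tRNA synthetase; the read-out is not stated. Target: Methionyl-tRNA synthetase (putative), Leishmania donovani (UniProt E9BF75). The test concentration is not given. The values are filed as inhibition. About 68,000 compounds were tested under these conditions; 0.035% (about 24) showed 50% or more at least once.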
Mtb heat-shock: 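Assay on Mycobacterium tuberculosis, filed only as a heat shock assay from Cornell; the read-out is not stated. The concentration is filed as 10 mM, unlikely as a test dose, so the dose is not known. Direction is inferred from retests: higher values go with stronger inhibition. Of about 69,000 compounds tested this way, about 930 (1.4%) reached 50% or more in at least one test.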

All values are in %. How 0% and 100% were set is not recorded. Most values in the screen are low, and negative values occur. This is an unselected part of the compounds tested. A dash means the value is not listed here; it may have been measured.

| compound | LdMetRS | Mtb heat-shock |
|---|---|---|
| `Cc1ccc(CNCc2cccc3cn[nH]c23)c(OC2CCOC2)c1` (configuration not stated) | 10.87% | 3.326% |
| `CC(=O)N1C[C@H](NC(=O)c2cscn2)[C@@H]2OCCC[C@@H]21` | 15.82% | - |
| `COCCNC(=O)Cn1cc(OCc2ccc(F)cc2)c(=O)cc1C` | 7.645% | -14.12% |
| `Cn1nnc2c1CCN(Cc1ccoc1)C2COCc1ccccc1` (configuration not stated) | 2.055% | - |
| `CC(C)(O)c1cn(C[C@H]2C[C@@H]3CCN2C[C@@H]3C(=O)N2CCOCC2)nn1` | -1.695% | - |
| `O=C(O)C(F)(F)F.O=C(c1ccccn1)N1CCc2ncc(Cn3cccn3)n2CC1` | - | -10.34% |
| `O=C(N1CCOCC1)N1CCc2ncnc(NC3CC3)c2CC1` | 3.81% | -7.681% |
| `c1ncn(CC2CCCN(Cc3nc(-c4ccoc4)no3)C2)n1` (configuration not stated) | 23.38% | -9.689% |
| `O=C(O)C(F)(F)F.[H][C@]12CCC[C@@]1(COCc1ccncc1)CN(C(=O)C1=CCCC1)C2` | - | 10.85% |
| `CN(C)C(=O)NCc1ncn2c1CN(Cc1cccs1)CCC2.O=C(O)C(F)(F)F.O=C(O)C(F)(F)F` | - | -6.131% |
| `CC(NC(=O)C1=NN(C)C(=O)CC1)c1cccc(Cl)c1` (configuration not stated) | 17.37% | 7.519% |
| `CN1C[C@@H](n2cnc(-c3ccccc3)c2-c2ncc[nH]2)C[C@H]1C(=O)O` | 5.753% | -13.51% |
| `CC(C)NC(=O)CC1COC2(CCN(Cc3cccnc3)CC2)C1.O=C(O)C(F)(F)F.O=C(O)C(F)(F)F` (configuration not stated) | - | -3.493% |
| `Cc1ccc2c(c1)CCC21CCN(CCO)CC1` | 8.889% | -34.19% |
| `Cc1cccnc1NC(=O)c1ccc(F)c(S(=O)(=O)NC2CC2)c1` | 5.307% | -17.01% |
| `COCCn1cncc1-c1nc2c([nH]1)CC(C)(C)CNC2=O` | 5.415% | -15.35% |
| `[H][C@@]12CN(C(=O)NCC)C[C@]1([H])OCC(=O)N2C` | - | -35.31% |
| `Cc1ncc(CNC(=O)CCOc2ccccc2)c(C2CCCN2C)n1` (configuration not stated) | 7.192% | 9.34% |
| `Cn1ccc(C(=O)N2CCCC(Cc3cccc4cccnc34)C2)n1` (configuration not stated) | -0.2353% | -24.09% |
| `Cc1ccc(CNC(=O)NC(C)CN2CCOCC2)s1` (configuration not stated) | 4.775% | -20.3% |
| `CCC(C)(CC(=O)OC)NCc1noc(C)n1` (configuration not stated) | 2.115% | -142.5% |
| `O=C([C@H]1C[C@H]2OCC[C@H]2N(C(=O)C2CCOCC2)C1)N1CCCCO1` | 17.99% | - |
| `CS(=O)(=O)N1CCOCC2(CCN(c3ccccn3)C2)C1.O=C(O)C(F)(F)F` (configuration not stated) | - | -2.08% |
| `Cc1nc(CN2CCCC(CCc3ccc(F)cc3F)C2)c[nH]1` (configuration not stated) | 14.07% | -3.047% |
| `O=C(NCc1ccc(Cl)s1)c1ccc(N2CCOC2=O)cc1` | 5.801% | -2.109% |
| `COc1ccc(C(=O)Nc2c(C)nn(C(C)C)c2C)cc1` | 1.418% | -12.5% |
| `COCCC(=O)N(CCC#N)c1ccc2c(c1)OCCO2` | 10.51% | 20.66% |
| `COCCn1c2c(ccc1=O)CCN(C(=O)CC1CC1)CC2` | 6.593% | 4.202% |
| `O=C(O)C(F)(F)F.[H][C@@]12C[C@H](C(=O)NC)CN(Cc3ccc(C)o3)[C@]1([H])CCO2` | - | -1.252% |
| `CCCNC(=O)Nc1cccc2c1CCN(S(C)(=O)=O)C2` | 20.42% | -1.976% |
| `CC(=O)N1N=C(c2ccccc2)OC1C(=O)NCCc1ccc(C)cc1` (configuration not stated) | 5.278% | 30.4% |
| `COc1c(CNCc2cccc(Cn3cncn3)c2)c(C)nn1C` | 21.67% | -10.96% |
| `CNCC(=O)N1CC(c2cc(Nc3ncccn3)nc(C)n2)C1` | 8.711% | - |
| `CO[C@@H]1CCN(Cc2nccn2C)[C@H]1Cc1cccnc1.O=C(O)C(F)(F)F.O=C(O)C(F)(F)F` | - | -16.63% |
| `O=C(O)C(F)(F)F.[H][C@@]12CN(Cc3ccc(OC)cc3)C[C@]1([H])[C@@H]2CC(=O)N1CCCC1` | - | -0.8005% |
| `CCn1c(C)cc(C(=O)N2CCC(NC(=O)c3ccc(C)o3)CC2)c1C` | 9.581% | -47.9% |
| `O=C1N[C@@H]2CCN(C(=O)c3ccccc3)[C@@H]2C(=O)N1c1ccc(F)cc1` | 8.242% | - |
| `Cn1ccnc1-c1ccc(NCc2cn3c(n2)SCC3)nn1` | 10.53% | 4.535% |
| `COC[C@@]12CC[C@@H](N3CCOCC3)C[C@H]1CCN(c1ncccc1F)C2` | 8.791% | - |
| `CCN(CC)CCCNCc1cc2cc(C)cc(C)c2[nH]c1=O` | 18.09% | 10.69% |
| `CCN1CCC2(CCC(=O)N2Cc2cccc(C)n2)CC1.O=C(O)C(F)(F)F.O=C(O)C(F)(F)F` | - | -30.9% |
| `COc1cccc(C(=O)N(C)C(C)c2c(C)n[nH]c2C)c1OC` (configuration not stated) | 1.961% | -6.569% |
| `CN(C)c1ncc(NC(=O)c2ccccc2C(F)(F)F)cn1` | 18.87% | 0.3944% |
| `COC(=O)N1CC(C)=C(C)CN1C(=O)Nc1ccc(Cl)c(Cl)c1` | 11.08% | -1.626% |
| `CCCn1cc(C(=O)NC(C)c2c(C)nn(CC)c2C)c(C)n1` (configuration not stated) | 13.84% | -11.8% |
| `Cc1cccc(-c2nc(CNC3CCc4nc(C)nn4C3)no2)c1` (configuration not stated) | 8.659% | -7.96% |
| `Cc1cc(C)n(CC2CCCN2C(=O)c2cccn3ccnc23)n1` (configuration not stated) | 17.46% | -5.04% |
| `Cc1occc1C(=O)N1CCC2(CCCN(CC3CCC3)C2=O)C1` (configuration not stated) | 18.58% | 20.3% |
| `CCOc1ccnc(N2CCCN(C(=O)c3cc[nH]c3C)CC2)n1` | 1.972% | 6.241% |
| `N#CCCN(CCC#N)C(=O)c1ccc(COc2ccccc2C#N)o1` | 5.455% | -10.49% |
| `CCCC(=O)N(CCCN1CCOCC1)c1nc2c(C)c(C)ccc2s1` | 11.51% | - |
| `COc1ccccc1OCCNC(=O)CN1CCN(C)CC1C` (configuration not stated) | 13.65% | -7.204% |
| `CNc1cc(CNC(=O)c2ccccn2)nc(-c2ccncc2)n1` | 18.15% | -4.392% |
| `CN(c1ccc(F)cc1)S(=O)(=O)c1cc2c(c(C(=O)O)c1)OCCO2` | 14.75% | -17.49% |
| `CCc1c(C(=O)N2CCC(CC(N)=O)CC2)cnn1C(C)(C)C` | 21.02% | -2.054% |
| `Cc1cnc(CN2CCN(C(C)c3nc(C)no3)CC2)cn1` (configuration not stated) | -1.955% | -16.9% |
| `CS(=O)(=O)N1CCc2sc(C(=O)NCCc3ccccn3)cc21` | 15.62% | -14.09% |
| `CNC(=O)C1Cn2ccnc2C2(CCN(CCF)CC2)O1` (configuration not stated) | 14.71% | -3.437% |
| `Cc1n[nH]c(C)c1C1COCCN1C(=O)Cc1ccccc1F` (configuration not stated) | 12.72% | -13.34% |
| `O=C(CCS(=O)(=O)C1CCCC1)N1CCCC1c1ccsc1` (configuration not stated) | 12.18% | 3.073% |

Once more, the final 3:

With CNC(=O)C1Cn2ccnc2C2(CCN(CCF)CC2)O1 (configuration not stated) the screen gave LdMetRS: 14.71%; Mtb heat-shock: -3.437%.
With Cc1n[nH]c(C)c1C1COCCN1C(=O)Cc1ccccc1F (configuration not stated) the screen gave LdMetRS: 12.72%; Mtb heat-shock: -13.34%.
With O=C(CCS(=O)(=O)C1CCCC1)N1CCCC1c1ccsc1 (configuration not stated) the screen gave LdMetRS: 12.18%; Mtb heat-shock: 3.073%.